Results are given in words; binding and its absence hold for the method and conditions named. Binding seen in cells or lysates may run through a third protein. Some binding calls cover weakened binding; strength is not graded here. Blank lines part the entries; values can stand above or below the substance they belong to.
How the values were obtained:
[1] = target: CDKN1B (P27), endogenous (human (endogenous in U87 or LN229)) (UniProt P46527); experiment: co-IP; endogenous Co-IP from U87 or LN229 cell lysate with anti-CDC20 or anti-CDKN1B antibody, control IgG as negative control; immunoblot with anti-CDC20 and anti-CDKN1B
[2] = target: CDKN1B-FLAG (UniProt P46527); experiment: co-IP; exogenous Co-IP from HEK293T cells, NP-40 lysis buffer; anti-FLAG antibody on Protein A/G agarose beads, incubated overnight with cell extracts at 4 °C; immunoblot with anti-HA and anti-FLAG
[3] = target: CDC20 (of the Co-IP in Fig. S5B) (UniProt Q12834); experiment: co-IP; Co-IP of PRMT6 and CDC20 (Fig. S5B); cells, constructs and antibodies not told in the text shown

By UniProt entry, the sequences of proteins in these tests, tags left out. Where a name states a change or a piece, a line headed by the entry shows the natural chain unless it says otherwise.
UniProt P46527: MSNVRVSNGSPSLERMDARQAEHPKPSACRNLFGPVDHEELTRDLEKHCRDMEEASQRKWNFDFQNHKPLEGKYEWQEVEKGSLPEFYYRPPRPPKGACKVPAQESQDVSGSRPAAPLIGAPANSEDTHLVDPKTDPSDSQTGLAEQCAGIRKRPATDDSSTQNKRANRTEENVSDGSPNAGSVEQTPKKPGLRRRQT
UniProt Q12834: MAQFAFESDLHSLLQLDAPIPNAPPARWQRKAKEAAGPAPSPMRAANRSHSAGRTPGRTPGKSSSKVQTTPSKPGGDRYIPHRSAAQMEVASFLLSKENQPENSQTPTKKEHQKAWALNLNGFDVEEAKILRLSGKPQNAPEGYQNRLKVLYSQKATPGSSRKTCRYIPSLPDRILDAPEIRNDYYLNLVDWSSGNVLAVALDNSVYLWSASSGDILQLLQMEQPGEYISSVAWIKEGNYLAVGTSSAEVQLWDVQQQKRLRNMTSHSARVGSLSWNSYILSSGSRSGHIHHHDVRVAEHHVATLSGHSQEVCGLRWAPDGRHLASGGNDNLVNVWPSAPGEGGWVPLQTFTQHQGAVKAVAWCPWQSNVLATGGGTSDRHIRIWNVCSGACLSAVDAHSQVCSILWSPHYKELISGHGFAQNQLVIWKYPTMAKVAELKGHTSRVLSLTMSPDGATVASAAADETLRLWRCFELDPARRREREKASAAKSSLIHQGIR
UniProt Q96LA8: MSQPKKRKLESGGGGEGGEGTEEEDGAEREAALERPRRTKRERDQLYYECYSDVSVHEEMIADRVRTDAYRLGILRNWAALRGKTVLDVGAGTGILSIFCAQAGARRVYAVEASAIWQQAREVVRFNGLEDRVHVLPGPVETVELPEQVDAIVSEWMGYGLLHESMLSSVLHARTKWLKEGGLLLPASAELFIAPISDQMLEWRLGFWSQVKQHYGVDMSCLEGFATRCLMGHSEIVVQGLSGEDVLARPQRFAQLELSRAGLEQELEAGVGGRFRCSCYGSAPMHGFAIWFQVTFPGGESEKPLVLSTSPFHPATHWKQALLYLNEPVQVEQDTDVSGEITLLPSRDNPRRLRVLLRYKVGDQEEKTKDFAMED

- binding [1]: binds
Substance: Cell division cycle 20 (CDC20), endogenous (from UniProt Q12834 1-499)

- binding [2]: binds
Substance: CDC20-HA (from UniProt Q12834 1-499)

- binding [3]: no binding
Substance: PRMT6 (of the Co-IP in Fig. S5B) (from UniProt Q96LA8 1-375)
